Experimental data reported in publication PMC8287682.
Results are given in words; binding and its absence hold for the method and conditions named. Binding seen in cells or lysates may run through a third protein. Some entries that bind do so weakly or less than the wild type. Sequences can lack the tags named with a protein.

Amino acid sequences for entries named in this document (tags omitted).
UniProt Q14457: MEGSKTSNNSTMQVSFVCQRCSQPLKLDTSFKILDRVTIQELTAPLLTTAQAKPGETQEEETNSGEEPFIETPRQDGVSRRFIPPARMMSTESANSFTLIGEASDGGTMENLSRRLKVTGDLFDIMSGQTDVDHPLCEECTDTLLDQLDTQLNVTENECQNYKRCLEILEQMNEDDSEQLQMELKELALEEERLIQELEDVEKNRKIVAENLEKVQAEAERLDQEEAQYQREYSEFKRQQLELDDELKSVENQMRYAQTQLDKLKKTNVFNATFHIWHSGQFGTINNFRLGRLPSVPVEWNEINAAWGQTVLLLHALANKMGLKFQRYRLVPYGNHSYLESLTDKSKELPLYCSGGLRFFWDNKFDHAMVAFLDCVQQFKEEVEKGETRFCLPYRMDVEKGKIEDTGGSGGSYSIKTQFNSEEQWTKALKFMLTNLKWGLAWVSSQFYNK
UniProt Q6ZNE5: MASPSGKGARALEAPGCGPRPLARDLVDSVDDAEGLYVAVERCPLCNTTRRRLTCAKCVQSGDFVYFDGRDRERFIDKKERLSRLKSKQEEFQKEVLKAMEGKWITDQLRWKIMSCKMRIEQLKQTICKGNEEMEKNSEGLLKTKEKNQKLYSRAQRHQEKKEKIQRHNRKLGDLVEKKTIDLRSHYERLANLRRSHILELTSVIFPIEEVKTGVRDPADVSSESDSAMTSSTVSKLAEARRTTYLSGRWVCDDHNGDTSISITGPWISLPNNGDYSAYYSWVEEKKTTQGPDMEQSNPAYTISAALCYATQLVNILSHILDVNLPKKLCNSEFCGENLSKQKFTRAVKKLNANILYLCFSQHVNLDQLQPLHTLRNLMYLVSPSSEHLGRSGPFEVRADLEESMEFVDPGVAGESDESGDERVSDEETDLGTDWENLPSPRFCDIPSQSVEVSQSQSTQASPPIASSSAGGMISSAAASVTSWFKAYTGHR

T1: GFP-CMTM7 (human) (UniProt Q96FZ5)
T1 sequence: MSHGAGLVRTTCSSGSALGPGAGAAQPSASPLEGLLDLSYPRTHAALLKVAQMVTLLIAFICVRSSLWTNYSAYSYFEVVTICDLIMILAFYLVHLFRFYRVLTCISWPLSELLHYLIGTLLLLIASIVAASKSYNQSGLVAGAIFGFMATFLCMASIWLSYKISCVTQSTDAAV

B1: GFP-CMTM7 (protein, UniProt Q96FZ5 1-175)
chain: T1 sequence

Experiments:
GFP-CMTM7 (human) = target: T1, GFP-CMTM7 (human); assay: co-IP; anti-GFP antibody and protein-G Sepharose; lysates of control and GFP-CMTM7-overexpressing HeLa cells, lysed 48 h after transfection; 20 mM Tris-HCl pH 8.0, 150 mM NaCl, 2 mM EDTA, 10% glycerol, 0.5% Nonidet P-40, 4 °C; Western blot
[1] = target: Beclin1 (human (endogenous in HeLa)) (UniProt Q14457); assay: co-IP; anti-Beclin1 antibody and protein-G Sepharose; lysates of control and GFP-CMTM7-overexpressing HeLa cells; 20 mM Tris-HCl pH 8.0, 150 mM NaCl, 2 mM EDTA, 10% glycerol, 0.5% Nonidet P-40, 4 °C; Western blot

Row | Molecule | binding (GFP-CMTM7 (human)) | binding [1]
1 | ATG14L (from UniProt Q6ZNE5 1-492) | binds | 
2 | Beclin1 (from UniProt Q14457 1-450) | binds | 
3 | B1 |  | binds
